# Assay results from the supplement of paper PMC3334620.
# The full ranking holds about 33,000 sequences; the median of “E-score (-0.5 to 0.5)” is about -0.0034, and the highest 2% start at about 0.25. This is one part of the list.
# Target: T1, Yap3 (UniProt P38749)
# T1 sequence: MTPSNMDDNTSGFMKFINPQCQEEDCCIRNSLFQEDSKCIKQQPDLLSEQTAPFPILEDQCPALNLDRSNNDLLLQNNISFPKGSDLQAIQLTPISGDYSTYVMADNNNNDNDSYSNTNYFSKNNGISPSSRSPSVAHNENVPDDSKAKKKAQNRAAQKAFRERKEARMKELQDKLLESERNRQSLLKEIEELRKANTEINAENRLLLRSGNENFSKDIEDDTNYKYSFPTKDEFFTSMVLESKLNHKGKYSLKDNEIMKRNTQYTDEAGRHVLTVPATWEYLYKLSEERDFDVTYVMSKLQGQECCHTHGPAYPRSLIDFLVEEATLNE
# Experiment: PBM E-score (8-mer binding enrichment) (E-score (-0.5 to 0.5)); higher = stronger / more preferred TF binding
# Settings: protein concentration: 100 nM; construct: GST-full length
# In short: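 The E-score, a modified Wilcoxon-Mann-Whitney statistic, was computed by the Universal PBM Analysis Suite for every ungapped eight-base word pooled with its reverse complement. Scans behind it were normalised with masliner after bound GST-tagged yeast transcription factors were detected with fluorescent anti-GST. The proteins, at about 100-200 nM, had been applied to universal all-10-mer Agilent arrays made double-stranded by primer extension.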
row,Sequence,PBM E-score
1,CCCGCGGG,-0.169
2,ATCGTCTG,-0.242
3,ACGTGCCA,-0.0528
4,ACTGGGAC,0.0285
5,AGACGATC,-0.233
6,CATACCAA,0.11
7,CTGCGTTC,0.0475
8,CCGGAGTA,0.0373
9,GCACAGAA,-0.0255
10,GCACAGCA,-0.107
11,AACAACGT,0.145
12,CTGATAAA,0.221
13,ACTATATA,0.328
14,CCCGACCC,-0.221
15,ACCGACAG,-0.0895
16,ACCGAGTC,-0.174
17,CATGCTAC,-0.179
18,AGGCCCAG,-0.24
19,GATAGCCA,-0.0311
20,ATATTCGG,0.115
21,ATTTACGC,0.127
22,TATACTAA,0.113
23,GGCGGCCA,-0.056
24,CGTCAGTC,9e-05
25,GGCGCCAA,0.0353

row,Sequence,PBM E-score
1,CGCACACA,0.16
2,AAGTTTCA,0.11
3,GCTTGCTA,-0.279
4,AGTTGAGA,-0.054
5,CCGACTTA,0.0921
6,AACAAAGG,0.141
7,CCACCACA,-0.104
8,GTGTCGAA,-0.0549
9,AGAGTCAG,-0.0772
10,ATTGTGTA,0.188
11,AGCAGGAG,-0.169
12,AACCCTGG,-0.141
13,AGTGGGTG,0.0723
14,ACATATCT,0.0612
15,CGCTGTTA,-0.049
16,AATGTGTG,0.147
17,ACTTAGCC,-0.00723
18,CCTTGACA,-0.0894
19,CTTTTTGA,-0.00681
20,CATTGCCG,0.0454
21,AGTAGACA,0.00632
22,CCCGTCAA,-0.183
23,CACACTTC,0.0074
24,AGGTACGA,0.00509
25,GATGAATA,0.242

row,Sequence,PBM E-score
1,GAAGCCAC,-0.0421
2,AAACAGCT,-0.0097
3,GAAGCAGA,0.0457
4,AGATGATA,0.08
5,AACCTAAA,0.142
6,ACCGGCAG,-0.277
7,AACGACTC,-0.118
8,CAGCGCGC,0.1
9,GCTACACA,-0.0739
10,CTGGAAAC,0.0292
11,AATGAATC,0.028
12,CATGAGTC,0.179
13,TAGAGCCA,-0.172
14,CATTTTTA,-0.0137
15,AGCTGCTA,-0.0365
16,CACTAATC,0.175
17,GCTACGAC,-0.0678
18,CACTTCTG,-0.129
19,ATCGTTCG,0.136
20,GAGCCCTA,-0.173
21,CGTATACA,0.0282
22,CACGAATC,0.0458
23,CCGAGTGC,-0.0436
24,CCCTTACA,0.0323
25,CATGTTCA,0.11

row,Sequence,PBM E-score
1,AATCCTGA,0.0232
2,CATCCATC,-0.12
3,GCGTCGAC,0.0911
4,GTTCTTGA,-0.0293
5,GCCCGTCA,-0.299
6,GGAAAACC,-0.11
7,CTACATTC,-0.0249
8,TGCTTTAA,0.153
9,GCGGCCCA,-0.246
10,GACGTTCA,-0.0915
11,CTATTCCC,0.03
12,ATTGGGAA,0.114
13,ACGTACGC,-0.0347
14,CAAGCATC,-0.0915
15,ATCTGGTA,-0.00323
16,GTAAGTTA,0.152
17,AGACCTCC,-0.407
18,CTCGTCTC,0.0205
19,CGTTATTA,0.183
20,ACAAGGAC,-0.0164
21,AGGGAATA,0.15
22,TATATATA,0.304
23,ATGCATGG,0.0626
24,CATGGGGA,-0.102
25,ATTCCAGA,0.101

# A few values from the entries so far:
# PBM E-score, ATTGGGAA is entered as 0.114
# PBM E-score, ATGCATGG is entered as 0.0626

# Carrying on.

row,Sequence,PBM E-score
1,GATGTCAA,-0.0125
2,TATCCGCA,0.236
3,GAGAATCA,-0.113
4,AGAACAGA,0.0919
5,CTTTTGAC,0.00804
6,TGGAAAAA,0.206
7,CGACCAAG,-0.15
8,AGTACTAG,0.0792
9,AGTGCGGG,-0.084
10,CATGCTCC,-0.141
11,CTCTTCAG,-0.088
12,CCGACATC,-0.0784
13,AGGCGCTG,0.0232
14,ATGTTCAC,-0.0242
15,CGTTTGTA,0.16
16,GCCGTTTA,0.0344
17,CCTACGGA,-0.232
18,GAAGTGGC,-0.0936
19,GGGCGACC,-0.247
20,GCGGAACA,-0.105
21,CGATATAG,0.126
22,CACGTCTG,0.0742
23,CAGCTAGG,-0.14
24,ACGTCACA,0.0829
25,CGGTGAAC,0.0707

row,Sequence,PBM E-score
1,CAACTGCA,-0.0467
2,AAATACAC,0.242
3,AACCTTGC,0.00598
4,CTTTCAAC,0.19
5,CCTCAGGC,-0.249
6,CGATAAAA,0.195
7,ACCCTTAC,0.0235
8,AAGACCGG,-0.124
9,ACATATGA,0.102
10,GTCGTCCA,-0.0463
11,CGGACTCC,-0.125
12,AGGGTTAG,-0.125
13,AATGGGAC,-0.121
14,CACGATCG,0.056
15,CAACATAA,0.297
16,CAAATCGG,-0.0566
17,CAGGTGCA,-0.0752
18,GTGAGCAC,-0.173
19,ACCCGTCA,-0.162
20,AGTGCAAA,0.225
21,CTTTGTTA,0.184
22,CACGCTCG,-0.0517
23,AGCGCCCC,-0.384
24,CTTGAGGA,-0.0886
25,CGGGACCC,-0.398

# Quoted at random: seven entries already listed.
row,Sequence,PBM E-score
14,CACGATCG,0.056
20,AGTGCAAA,0.225
15,CAACATAA,0.297
3,AACCTTGC,0.00598
12,AGGGTTAG,-0.125
22,CACGCTCG,-0.0517
10,GTCGTCCA,-0.0463

# (continued)

row,Sequence,PBM E-score
1,ATTATGAC,0.14
2,GAGGTAAC,0.0442
3,CCGCCATC,-0.21
4,TATCTACA,0.195
5,ACAAGAAC,0.216
6,CAGCACAA,0.0241
7,GTTGATTA,0.168
8,CTAATCAG,0.0826
9,ACGGGGCT,-0.178
10,CCTCGCCC,-0.0977
11,CCGCATTC,0.0142
12,ACCACTCA,-0.0995
13,ATGTGAGA,0.124
14,CGTGGCTC,-0.321
15,CAACCCTA,0.00408
16,ATAGTCGC,0.00598
17,ATCATTAC,0.243
18,ATTACTCG,0.23
19,ATACTGTG,0.0254
20,CTTCTATC,-0.0246
21,CCGGCCTA,-0.12
22,AAGCCAGC,-0.0187
